# Out of some 290,000 compounds screened, about 570 (0.2%) were called active. The inconclusive results got no clear call from the source; some entries with a clear call stand among them for comparison. Cut-off read from the data, not from the text of the source: active = inhibition mostly above about 51% (no sharp cut-off); inconclusive = no clear call, values can overlap the other calls; inactive = mostly below about 53%.
# Sequences of proteins named here, by UniProt entry; tags and fusion partners are left off.
# UniProt Q00975, whole entry, looked up: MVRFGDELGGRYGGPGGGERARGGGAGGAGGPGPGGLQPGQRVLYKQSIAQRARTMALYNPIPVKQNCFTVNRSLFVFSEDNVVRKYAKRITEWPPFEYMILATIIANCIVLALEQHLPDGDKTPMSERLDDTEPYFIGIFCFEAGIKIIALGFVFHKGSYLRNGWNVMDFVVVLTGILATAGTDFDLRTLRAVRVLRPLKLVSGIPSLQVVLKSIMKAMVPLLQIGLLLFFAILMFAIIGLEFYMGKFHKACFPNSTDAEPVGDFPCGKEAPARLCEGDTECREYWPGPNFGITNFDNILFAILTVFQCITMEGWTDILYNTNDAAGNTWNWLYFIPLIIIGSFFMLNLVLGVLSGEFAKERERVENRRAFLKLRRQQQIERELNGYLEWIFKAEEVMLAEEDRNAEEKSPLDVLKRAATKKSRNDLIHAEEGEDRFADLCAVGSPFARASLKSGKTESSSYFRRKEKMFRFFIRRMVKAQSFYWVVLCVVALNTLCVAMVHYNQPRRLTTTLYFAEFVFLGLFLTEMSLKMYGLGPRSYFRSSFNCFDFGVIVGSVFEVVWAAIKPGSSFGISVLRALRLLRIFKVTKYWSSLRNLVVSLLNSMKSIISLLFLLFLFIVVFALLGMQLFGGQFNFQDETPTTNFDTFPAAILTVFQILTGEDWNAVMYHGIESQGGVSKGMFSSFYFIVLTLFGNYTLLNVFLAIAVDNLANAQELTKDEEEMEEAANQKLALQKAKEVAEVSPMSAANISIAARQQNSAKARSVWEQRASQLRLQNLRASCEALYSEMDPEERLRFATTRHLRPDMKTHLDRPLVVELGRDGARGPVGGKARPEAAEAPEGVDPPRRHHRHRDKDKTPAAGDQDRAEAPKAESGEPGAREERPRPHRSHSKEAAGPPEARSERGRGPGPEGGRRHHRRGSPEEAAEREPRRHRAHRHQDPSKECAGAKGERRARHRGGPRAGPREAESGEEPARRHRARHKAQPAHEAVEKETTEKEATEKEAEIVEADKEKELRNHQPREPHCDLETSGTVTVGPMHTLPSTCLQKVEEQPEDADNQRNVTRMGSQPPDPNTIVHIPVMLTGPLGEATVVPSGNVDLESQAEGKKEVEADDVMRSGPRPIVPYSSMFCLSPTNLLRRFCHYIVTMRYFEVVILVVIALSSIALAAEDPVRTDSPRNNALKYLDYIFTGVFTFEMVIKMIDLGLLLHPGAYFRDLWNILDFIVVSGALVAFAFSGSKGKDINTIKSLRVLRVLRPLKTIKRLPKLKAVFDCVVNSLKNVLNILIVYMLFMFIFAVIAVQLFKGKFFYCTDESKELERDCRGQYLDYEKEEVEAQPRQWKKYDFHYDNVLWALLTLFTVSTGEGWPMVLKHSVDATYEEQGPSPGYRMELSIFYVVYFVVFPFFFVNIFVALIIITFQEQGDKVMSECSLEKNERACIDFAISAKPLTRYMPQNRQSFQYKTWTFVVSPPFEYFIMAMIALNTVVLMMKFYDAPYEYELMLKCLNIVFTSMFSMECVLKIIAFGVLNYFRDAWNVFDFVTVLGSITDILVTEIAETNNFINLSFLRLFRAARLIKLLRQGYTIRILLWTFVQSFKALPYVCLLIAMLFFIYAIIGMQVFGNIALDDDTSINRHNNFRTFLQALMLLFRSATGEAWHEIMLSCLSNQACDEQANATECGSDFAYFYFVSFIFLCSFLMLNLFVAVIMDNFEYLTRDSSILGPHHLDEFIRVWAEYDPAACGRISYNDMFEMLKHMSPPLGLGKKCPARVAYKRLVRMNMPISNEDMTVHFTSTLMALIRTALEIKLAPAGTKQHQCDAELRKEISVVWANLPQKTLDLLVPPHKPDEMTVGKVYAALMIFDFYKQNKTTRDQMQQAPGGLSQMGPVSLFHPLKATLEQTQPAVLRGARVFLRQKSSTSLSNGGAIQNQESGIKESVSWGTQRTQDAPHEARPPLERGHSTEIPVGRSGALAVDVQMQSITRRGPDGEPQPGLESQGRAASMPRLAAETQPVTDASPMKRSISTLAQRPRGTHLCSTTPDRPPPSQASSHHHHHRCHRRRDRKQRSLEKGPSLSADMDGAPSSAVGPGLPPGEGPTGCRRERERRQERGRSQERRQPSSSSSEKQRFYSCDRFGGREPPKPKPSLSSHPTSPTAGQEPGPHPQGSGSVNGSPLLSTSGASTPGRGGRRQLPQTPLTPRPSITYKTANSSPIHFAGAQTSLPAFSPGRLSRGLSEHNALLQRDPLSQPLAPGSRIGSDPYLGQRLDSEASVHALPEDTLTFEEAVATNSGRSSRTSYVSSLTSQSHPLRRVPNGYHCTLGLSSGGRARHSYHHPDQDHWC
# Target: Voltage-dependent N-type calcium channel subunit alpha-1B (Homo sapiens) (UniProt Q00975)
# Experiment: disruptors of CaV2.2 binding to Mint1 – biochemical, HTRF (AID 2073)
# Settings: HTRF protein-protein interaction, Mint1-CaV2.2; at 20 µM; active compounds read high
row,SMILES,inhibition
1,CS(=O)(=O)C1=NSC2=NC(=O)/C(=C\c3cccn3-c3ccccc3Cl)C(=N)N21,active: 68.7%
2,CCCN1C(=O)/C(=C\C=C2/Sc3ccccc3N2CCO)SC1=S,inactive: 26.3%
3,O=C(Nc1cccc(O)c1)C1CC(c2cccc(Br)c2)=NO1 (stereo unspecified),inconclusive: 79.4%
4,CCc1cccc(C)c1NC(=O)CNCc1ccccc1,inconclusive: 60.7%
5,CC1(C)Cc2c(oc3ncn4ncnc4c23)CO1,inconclusive: 60.6%
6,CC(C)(C)C(=O)OCC1OC(n2cnc(C(N)=O)n2)C(O)C1O (stereo unspecified),inconclusive: 81.6%
7,CN(C)/C=N/c1nc2nccc(-c3cccs3)n2n1,inconclusive: 67.8%
8,CCOC(=O)C1CCN(C(=O)COc2ccc(Br)cc2Br)CC1,inconclusive: 73.6%
9,COCCCN1C(=O)C(=O)/C(=C(/O)c2ccc(S(=O)(=O)N3CCCCC3)cc2)C1c1ccc(O)cc1 (stereo unspecified),inactive: 2%
10,CCOc1cccc2cc(-c3nnc(NCc4ccco4)s3)c(=O)oc12,inconclusive: 69.2%
11,OCC1(CCCc2ccccc2)CCN(Cc2ccc(F)cc2)CC1,inactive: -2.6%
12,Cc1ccc(C)c(N2CCN(c3ccc4cc(S(=O)(=O)N5CCCCC5)ccc4n3)CC2)c1,inconclusive: 55%
13,CC(=O)c1c(COC(=O)c2ccco2)nc2ccccc2[n+]1[O-],inconclusive: 61.4%
14,Cc1cccc(NC(=O)CCN2C(=O)C3C4C=CC(C4)C3C2=O)n1 (stereo unspecified),inactive: 22%
15,O=c1oc2c(CN3CCCCCC3)c(O)ccc2cc1-c1nc2ccccc2[nH]1,active: 65.1%
16,COc1ccc(CNC(=O)C(C#N)c2nc3ccccc3nc2N2CCN(C)CC2)cc1 (stereo unspecified),inconclusive: 82.4%
17,CP(=O)(COC(=O)c1ccccc1)COC(=O)c1ccccc1,inactive: -9.7%
18,O=C(CSc1nc2scc(-c3ccco3)c2c(=O)n1-c1ccccc1)NCC1CCCO1 (stereo unspecified),active: 55%
19,CNS(=O)(=O)c1cc(C(=O)O)ccc1OC,inconclusive: 103%
20,COc1ccc(NC(=O)NCc2ccccc2F)cc1OC,inconclusive: 88%
21,CN1CCN(C(=O)c2cnn3c(C(F)(F)F)cc(-c4cccs4)nc23)CC1,inconclusive: 55.8%
22,CCCCCc1nc2c(c3c1CCCC3)CCCC2,inconclusive: 67.1%
23,Cn1cc(S(=O)(=O)Oc2ccccc2)c(=O)n(C)c1=O,inconclusive: 55.6%

row,SMILES,inhibition
1,CSc1n[nH]c(=O)n1-c1cccc(Cl)c1,inconclusive: 85.6%
2,CCc1ccc(C(=O)N/N=C(\C)c2cccnc2)s1,inconclusive: 60.4%
3,COc1ccc(Nc2nc3ccccc3c(=O)[nH]2)cc1,inconclusive: 50.4%
4,CC(C)(C)N1C(=O)[C@H]2[C@@H](c3ccc(Br)cc3)N3C(=O)N(c4cccc(Br)c4)C(=O)[C@@]3(Cc3ccccc3)[C@H]2C1=O,inconclusive: 50.8%
5,Nc1nc(O)c(N=Nc2ccc(S(N)(=O)=O)cc2)c(=O)[nH]1,active: 50%
6,O=C(COc1ccccc1[N+](=O)[O-])N/N=C/C=C/c1ccco1,inactive: 4.5%
7,Nc1ccc2nn(-c3ccc(F)cc3)nc2c1,inconclusive: 60.2%
8,CCOC(=O)c1ccc2c(c1)C1C=CCC1C(C(=O)O)N2 (stereo unspecified),inactive: 31%
9,Cc1cc(C(=O)N2CCN(c3ncccn3)CC2)c2cc(F)ccc2n1,inconclusive: 54.9%
10,Cc1cc2cc(C(c3nnnn3CC3CCCO3)N3CCCc4ccccc43)c(=O)[nH]c2cc1C (stereo unspecified),active: 70%
11,Cc1c(CCC(=O)NCCCN2CCCC2=O)c(=O)oc2c(C)c(O)ccc12,inconclusive: 69.2%
12,O=C(NN1C(=O)C2CC=C(Cl)CC2C1=O)c1ccncc1 (stereo unspecified),active: 61.5%
13,O=c1cc(Cn2ccnc2)c2cc(O)ccc2o1,inconclusive: 57.3%
14,O=C(CN1C(=O)CSC1=O)Nc1ccc(N2CCOCC2)cc1,inconclusive: 55.7%
15,O=C(C1CCCCC1)N1CCCC(c2nc3c(nnn3Cc3ccccc3)c(=O)[nH]2)C1 (stereo unspecified),inconclusive: 83.4%
16,COc1cc(/C=C(/C#N)c2nc(-c3cc4ccccc4oc3=O)cs2)cc([N+](=O)[O-])c1O,active: 80.7%
17,COc1cc2cccc(OC)c(=O)c2c(OC)c1OC,inconclusive: 64.1%
18,O=C(CCCOc1ccc(Cl)cc1Cl)NCC1CCCO1 (stereo unspecified),inconclusive: 63.7%
19,CCN(CC)S(=O)(=O)c1cccc2c(N(C)C)cccc12,inconclusive: 52.3%
20,Cc1nc(NC(=O)CSc2nncs2)c(Cl)cc1Cl,inconclusive: 70.6%
21,COc1ccc(N/C=C2\C(=O)c3c(sc(C)c3C)N(C)S2(=O)=O)cc1,inconclusive: 57.1%
22,CC1(C)N=C(/C=N/O)C=[N+]1[O-],inconclusive: 79.3%
23,O=C(Nc1ccc(O)c(-c2nc3ccccc3o2)c1)C1(c2ccccc2)CCCC1,inconclusive: 67.1%

# Part of the list above in a different format:
row | SMILES | inhibition
2 | CCCN1C(=O)/C(=C\C=C2/Sc3ccccc3N2CCO)SC1=S | inactive: 26.3%
18 | O=C(CSc1nc2scc(-c3ccco3)c2c(=O)n1-c1ccccc1)NCC1CCCO1 (stereo unspecified) | active: 55%
19 | CNS(=O)(=O)c1cc(C(=O)O)ccc1OC | inconclusive: 103%
21 | CN1CCN(C(=O)c2cnn3c(C(F)(F)F)cc(-c4cccs4)nc23)CC1 | inconclusive: 55.8%
23 | Cn1cc(S(=O)(=O)Oc2ccccc2)c(=O)n(C)c1=O | inconclusive: 55.6%

# Going on with the list.

row,SMILES,inhibition
1,O=C(COc1ccc2ccccc2c1)N1CCN(c2ccccc2O)CC1,inconclusive: 55.7%
2,CCOCCCNc1nc2c(C)cccn2c(=O)c1/C=C1\SC(=S)N(C(C)CC)C1=O (stereo unspecified),inconclusive: 66.5%
3,O=C(Nc1ccc(F)cc1)c1cccc(N2C(=O)c3ccccc3C2=O)c1,inconclusive: 55.1%
4,N#C/C(=C\c1ccc(O)c(Br)c1)C(=O)N1CCCCC1,inconclusive: 50.2%
5,O=C(Cc1ccc(Cl)cc1)c1c[nH]c(C(=O)NCc2cccnc2)c1,inconclusive: 54.8%
6,O=C(Nc1nc(-c2ccc(-c3ccccc3)cc2)cs1)C1=COCCO1,inconclusive: 56%
7,N#C/C(=C\c1cccc(OC(=O)c2cccs2)c1)C(N)=O,inconclusive: 55.7%
8,CN(C(=O)CSc1nnc(-c2ccc(Cl)cc2)n1CC1CCCO1)C1CCS(=O)(=O)C1 (stereo unspecified),inconclusive: 73.3%
9,CSCc1nc2sc(C(=O)Nc3nc(C)cs3)c(C)c2c(=O)[nH]1,inconclusive: 85.5%
10,O=C(CCC(=O)N(CC(=O)NC1CCCCC1)Cc1ccccc1)Nc1ccccn1,inactive: -13%
11,Cc1ccccc1NC(=S)N(Cc1cccs1)C1CCCC1,inconclusive: 72.6%
12,CNc1nc2c(-c3ccc(Cl)cc3)nnn2c2ccccc12,inconclusive: 51.8%
13,CC1CC(C)CN(C(=O)Cn2c(=O)oc3cc(S(=O)(=O)N4CCCC4)ccc32)C1 (stereo unspecified),inconclusive: 73.5%
14,COc1ccc(C2CC(=O)N3CN(c4ccccc4F)CSC3=C2C#N)cc1OC (stereo unspecified),inactive: 79.9%
15,Cc1cc(Cl)ccc1N=C1N=C(N)c2ccccc21,inactive: -3.2%
16,CCCNC(=O)Cn1sc2nc(C)cc(C)c2c1=O,active: 88.4%
17,O=C1CSC(c2ccccc2)N1c1nnc(C23CC4CC(CC(C4)C2)C3)s1 (stereo unspecified),inactive: 1.5%
18,O=C(Nc1ccc2c(c1)OCO2)c1cccc2c1C(=O)N(Cc1cccnc1)C2,inconclusive: 51.8%
19,O=C(Nc1nc(-c2ccccc2)cs1)C1CCCCN1S(=O)(=O)c1ccccc1 (stereo unspecified),inconclusive: 75.5%
20,Cc1ccc(C(=O)NCCc2nnc3ccc(SCC(=O)Nc4c(C)cc(C)cc4C)nn23)cc1,inactive: 8.7%
21,O=C(Nc1ccc2c(c1)nc1n2CCN(C2CCCCC2)C1)c1ccco1,active: 57.2%
22,Cc1cc(NC(=O)CSc2nc3ccccc3n2CCC#N)no1,inconclusive: 71.9%
23,CCSc1nnc(-c2sc3nnc(-c4ccccc4)c(-c4ccccc4)c3c2N)o1,inconclusive: 53.3%

row,SMILES,inhibition
1,Cc1ccc(NC(=S)c2ccccc2)cc1,inactive: -6.4%
2,Cc1ccccc1CN(c1ccc(C(=O)NCc2ccccn2)cc1)S(C)(=O)=O,inactive: -3.2%
3,Oc1ccc(N=Cc2sc3ccccc3c2Cl)cc1,inconclusive: 58.8%
4,CCOC(=O)c1sc2nc(NC(=O)COc3ccccc3)sc2c1C,inconclusive: 60%
5,Cc1[nH]n(-c2ccccc2)c(=O)c1C=Nc1ccc(S(N)(=O)=O)cc1,inactive: 0.1%
6,CCCOC1CCCN(C(=O)c2cc(COc3c(F)cccc3F)on2)C1 (stereo unspecified),inconclusive: 67.1%
7,O=C(c1ccccc1F)c1cc2c(cc1[N+](=O)[O-])OCCO2,inconclusive: 64.4%
8,COc1ccc(CCCNC(=O)C2CCC(=O)N(CC3CCCCC3)C2)cc1 (stereo unspecified),inconclusive: 61.2%
9,O=C(NN1C(=O)c2ccccc2C1=O)c1ccc2c(c1)C(=O)N(CC1CCCO1)C2=O (stereo unspecified),inconclusive: 75.5%
10,COC(=O)C1SCC2C(=O)N(Cc3ccc(Cl)cc3)CC(=O)N21 (stereo unspecified),inconclusive: 52.2%
11,CN1C(=O)CSC1=Nc1ccc(Br)cc1,inactive: -4.4%
12,COc1cccc(NS(=O)(=O)c2ccc3c(c2)C2C=CCC2C(c2ccc(C(=O)O)cc2)N3)c1 (stereo unspecified),active: 56.4%
13,COc1ccc(/C=C(\NC(=O)/C=C/c2ccco2)C(=O)NCCc2nc3ccccc3[nH]2)cc1,active: 52.5%
14,CN1CCN(S(=O)(=O)c2cccc(C(=O)Oc3ccccc3Cl)c2)CC1,inactive: 14.6%
15,CC(C)CC(=O)Nc1nnc(SCC(=O)Nc2nccs2)s1,inconclusive: 72.1%
16,Cc1ccc(C(=O)NN2C(=O)CSC2=S)cc1,inconclusive: 102%
17,CCc1cc2cc(C)cc(C)c2nc1Cl,inconclusive: 76.5%
18,N#Cc1ccccc1NC(=O)CNc1ccccc1N1CCCCC1,inconclusive: 51.2%
19,O=C(CCC1CCCN(C(=O)c2cc(C3CC3)[nH]n2)C1)N1CCN(c2ccccn2)CC1 (stereo unspecified),inconclusive: 73.2%
20,Nc1nc(N2CCN(c3ccccc3)CC2)n[nH]1,inactive: -13.2%
21,Cc1cccnc1NC(=S)NCCc1ccccc1,inconclusive: 84.3%
22,CCC1CCC2(CC1)NC(=O)N(CC(=O)Nc1cc(C)on1)C2=O (stereo unspecified),inconclusive: 81.9%

# From PubChem BioAssay AID2073 (Sanford-Burnham Center for Chemical Genomics, 2009)
